From PubChem BioAssay AID1671190 (National Center for Advancing Translational Sciences (NCATS), 2021)
“And” between values parts separate entries of the source, which are not always exact repeats. Equal values may be shown once. About 6,100 (1.1%) of roughly 580,000 compounds were called active. The inconclusive results got no clear call from the source; some entries with a clear call stand among them for comparison. Calls come from the whole dose curve; as a rule, active = well fitted inhibition curve with a large enough effect; inconclusive = small, poorly fitted or top-dose-only effect, or another doubt; inactive = no such curve, though single readings can be large or run the other way. Where the call is inconclusive, the potency comes from a doubtful curve fit.

Sequences of proteins named here, by UniProt entry; tags and fusion partners are left off. A change or cut given only in a name is not applied to a line headed by its entry.
UniProt P18054: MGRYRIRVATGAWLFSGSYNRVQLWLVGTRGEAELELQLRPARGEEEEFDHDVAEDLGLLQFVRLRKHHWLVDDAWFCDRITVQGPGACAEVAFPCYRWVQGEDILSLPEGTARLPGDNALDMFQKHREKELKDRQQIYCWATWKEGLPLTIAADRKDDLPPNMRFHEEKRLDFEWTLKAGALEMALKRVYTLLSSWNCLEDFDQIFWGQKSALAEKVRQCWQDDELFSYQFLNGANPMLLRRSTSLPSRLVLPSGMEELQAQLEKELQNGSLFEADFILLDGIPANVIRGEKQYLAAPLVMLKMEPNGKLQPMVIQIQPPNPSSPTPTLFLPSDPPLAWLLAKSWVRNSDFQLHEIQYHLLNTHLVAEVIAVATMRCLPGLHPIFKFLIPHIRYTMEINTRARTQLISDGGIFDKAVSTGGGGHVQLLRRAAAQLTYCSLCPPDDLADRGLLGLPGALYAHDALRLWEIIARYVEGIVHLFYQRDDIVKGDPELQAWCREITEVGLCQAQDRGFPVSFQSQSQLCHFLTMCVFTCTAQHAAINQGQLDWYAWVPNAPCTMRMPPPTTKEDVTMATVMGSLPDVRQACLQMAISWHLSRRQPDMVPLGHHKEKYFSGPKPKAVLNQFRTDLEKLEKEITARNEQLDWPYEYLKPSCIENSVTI

Molecular target: Polyunsaturated fatty acid lipoxygenase ALOX12 (Homo sapiens) (UniProt P18054)
Assay: Primary qHTS assay for inhibitors of human arachidonate 12S-lipoxygenase (ALOX12): Round 2
Conditions: purified 12hLO, xylenol orange hydroperoxide absorbance; activity change, negative = inhibition: at 108 µM (top of the series) unless noted
How it was run: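 Purified human 12hLO at 150 nM in 25 mM Hepes, 0.01% Triton X-100, pH 7.0, preincubated 15 min at room temperature with compound. Reaction started with 40 uM arachidonic acid, 30 min at room temperature. Hydroperoxide measured by Fe-xylenol orange, 573/405 nm absorbance ratio.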
% is set by controls: 0 for no effect and ±100 for the full control effect; potency is the fitted concentration of half-maximal effect.

| SMILES | Potency | activity change, negative = inhibition |
| --- | --- | --- |
| Cc1ccc(S(=O)(=O)N2[C@@H](CO)CO[C@H]2CC(=O)OCc2ccccc2)cc1 | inconclusive: 44.7 µM [inhibitor, partial curve, poor fit] |  |
| C=CC[C@H]1CC(Cc2ccccc2)=C[C@H](CC=C)N1 | inconclusive: 141 µM [inhibitor, partial curve, poor fit] |  |
| O=C(Cc1ccc(F)cc1)N1CCC2(CCC(=O)N(CC3CC3)CC2)CC1 | inconclusive: 39.8 µM [inhibitor, partial curve] |  |
| COC(=O)CSC1=C(C#N)C(c2cccc(F)c2)CC(=O)N1 (stereo not given) | inconclusive: 5.01 µM [inhibitor, full curve, poor fit] |  |
| CCCCn1cnc2c1c(=O)n(CC(=O)Nc1ccccc1C(C)C)c(=O)n2CCC |  | inactive: 5.69% |
| CCCCCCCCOC(=O)/C(C#N)=C/c1c[nH]c2ccccc12 | inconclusive: 3.55 µM [inhibitor, full curve, poor fit] |  |
| CC(C)c1ccccc1NC(=O)CCc1ncc(-c2ccccc2F)o1 | inconclusive: 141 µM [inhibitor, single point] |  |
| CC1CCCN(C(=O)c2coc(COc3cccc(F)c3F)n2)C1 (stereo not given) |  | inactive: 15.3% |
| Cc1cc([N+](=O)[O-])nn1CC(=O)Nc1nccs1 | inconclusive: 112 µM [inhibitor, partial curve, poor fit] |  |
| CCOC(=O)C1CCCN(C(=O)CSc2ccc(NC(C)=O)cc2)C1 (stereo not given) |  | inactive: -3.82% |
| O=C(NC(=S)Nc1ccccc1O)c1ccc(-c2ccc(Cl)cc2)o1 | inconclusive: 50.1 µM [inhibitor, partial curve, poor fit] |  |
| O=C(/C=C/Nc1ccc(F)c(Cl)c1)c1ccccc1 | inconclusive: 39.8 µM [inhibitor, partial curve, poor fit] |  |
| CCOc1ccc(Cc2n[nH]c(=S)n2Cc2ccccc2)cc1 | inconclusive: 44.7 µM [inhibitor, partial curve, poor fit] |  |
| CN1C(=O)NC(c2ccccc2[N+](=O)[O-])C2=C1CC(C)(C)CC2=O (stereo not given) | inconclusive: 25.1 µM [inhibitor, single point] |  |
| O=C1NC[C@H](c2ccccc2)OC(=O)[C@@H](Cc2ccc(F)cc2)CC/C=C/C[C@H]1CC(=O)N(CCO)Cc1ccccc1 | inconclusive: 89.1 µM [inhibitor, single point] |  |
| Cc1ccc2cccnc2c1NC(=S)NC(=O)c1ccccc1 | inconclusive: 39.8 µM [inhibitor, partial curve, poor fit] |  |
| Cc1ccc(N2C(=O)c3ccccc3NC2C(C)Cc2ccc3c(c2)OCO3)cc1 (stereo not given) | inconclusive: 15.8 µM [inhibitor, partial curve] |  |
| Cc1cc(C(=O)NC(=S)Nc2cccc(C(=O)O)c2C)ccc1[N+](=O)[O-] | active: 20 µM |  |
| COc1ccc(S(=O)(=O)NCc2ccncc2)cc1NC(=O)c1ccccc1C | inconclusive: 56.2 µM [inhibitor, partial curve, poor fit] |  |
| C#CCSC1=C(C#N)C(c2cccs2)C(C(=O)OCC)=C(C)N1 (stereo not given) |  | inactive: -10.9% |
| Cc1ccc(C(=O)N/C(=C\c2ccc(-c3ccc(Br)cc3)o2)C(=O)NC(C)(C)C)cc1 | inconclusive: 0.501 µM [inhibitor, full curve, poor fit] |  |
| N[C@@]1(C(=O)O)CN[C@@H](C(=O)O)C1 |  | inactive: -23.4% |

Random excerpt: four compounds from above

| SMILES | Potency | activity change, negative = inhibition |
| --- | --- | --- |
| O=C(NC(=S)Nc1ccccc1O)c1ccc(-c2ccc(Cl)cc2)o1 | inconclusive: 50.1 µM [inhibitor, partial curve, poor fit] |  |
| N[C@@]1(C(=O)O)CN[C@@H](C(=O)O)C1 |  | inactive: -23.4% |
| O=C(/C=C/Nc1ccc(F)c(Cl)c1)c1ccccc1 | inconclusive: 39.8 µM [inhibitor, partial curve, poor fit] |  |
| COC(=O)CSC1=C(C#N)C(c2cccc(F)c2)CC(=O)N1 (stereo not given) | inconclusive: 5.01 µM [inhibitor, full curve, poor fit] |  |

Next part.

| SMILES | Potency | activity change, negative = inhibition |
| --- | --- | --- |
| O=c1cc(N2CCCCC2)c(-c2ccccc2)nn1Cc1ccc(F)cc1 | inconclusive: 44.7 µM [inhibitor, partial curve, poor fit] |  |
| Cc1ccc([C@H]2N[C@]3(CCCN(Cc4ccc(C(F)(F)F)cc4)C3=O)[C@H]3C(=O)N(C)C(=O)[C@@H]23)cc1 | inconclusive: 39.8 µM [inhibitor, partial curve, poor fit] |  |
| O=C(Cn1nc(-c2ccccc2Cl)ccc1=O)Nc1ccc(Br)cc1 |  | inactive: 0.46% |
| COc1cccc(-c2cc(C(=O)O)no2)c1 | inconclusive: 44.7 µM [inhibitor, partial curve, poor fit] |  |
| Cc1ccc(C(=O)CC(SCC(=O)O)c2ccc([N+](=O)[O-])cc2)cc1 (stereo not given) | inconclusive: 7.94 µM [inhibitor, partial curve, poor fit] |  |
| Cc1ccc(CCNC(=O)c2cc3sccc3n2Cc2ccc(F)cc2)cc1 | inconclusive: 35.5 µM [inhibitor, full curve, poor fit] |  |
| Cc1ccc(OCCN2CCN(C(=O)CCC(=O)Nc3nnc(CC(C)C)s3)CC2)cc1 |  | inactive: 206% |
| O=C1C=C(c2ccc(-c3ccccc3)cc2)C[C@@H](c2ccc3c(c2)OCO3)C1 | inconclusive: 22.4 µM [inhibitor, partial curve] |  |
| C=CCNC(=O)NC(=O)CN1CCc2ccccc2C1 | inconclusive: 0.447 µM [inhibitor, full curve, poor fit] |  |
| Cc1cc([N+](=O)[O-])ccc1N=Cc1ccc(C#Cc2ccccc2)cc1 |  | inactive: -2.11% |
| C=CCn1c(-c2cnn(-c3ccccc3)c2N)n[nH]c1=S | inconclusive: 35.5 µM [inhibitor, partial curve, poor fit] |  |
| CC(C)(C)OC(=O)N1CCC[C@H]1C(=O)NCc1ccc(Cl)cc1Cl |  | inactive: -3.27% |
| CC(=O)c1ccc(-c2cnc3c(NC=O)cc(-c4cnn(C)c4)cn23)cc1 | inconclusive: 31.6 µM [inhibitor, partial curve, poor fit] |  |
| COc1ccc(NC(=O)Cn2cccc2-c2nc(-c3ccccc3)no2)cc1 | inconclusive: 44.7 µM [inhibitor, partial curve, poor fit] |  |
| CC(=O)NC1(C)CCN(Cc2ccccc2-c2cccc(C(C)=O)c2)C1 (stereo not given) | active: 35.5 µM |  |
| CCOC(=O)CNC(=S)n1ncnc1N |  | inactive: -12.2% |
| Cc1cccc(C)c1OCCOCCN1CCN(C)CC1 | inactive and inconclusive: 1.78 µM [inhibitor, full curve, poor fit] |  |
| COc1ccccc1-n1cnnc1SCC(=O)NC(C)c1ccc(-c2ccccc2)cc1 (stereo not given) | active: 1.58 µM |  |
| Nc1nccnc1C(=O)NCc1ccnc(-n2cccn2)c1 | inconclusive: 2.51 µM [inhibitor, full curve, poor fit] |  |
| O=C(c1cccs1)N1C[C@H](n2cc(-c3ccc(F)cc3)nn2)[C@@H](O)C[C@@H]1c1ccc(Cl)cc1 | inconclusive: 25.1 µM [inhibitor, partial curve, poor fit] |  |
| CCCCCNC(=O)C(c1ccncc1)n1c(=O)c(-c2ccccc2)nc2ccccc21 (stereo not given) |  | inactive: 3.61% |
| Cc1ccc2nc(CO[C@H]3CN(c4ccc(C#N)cn4)C[C@H]3F)[nH]c2c1 | active: 14.1 µM |  |

| SMILES | Potency | activity change, negative = inhibition |
| --- | --- | --- |
| OC(c1ccccc1)c1nc(-c2cccc(F)c2)cs1 (stereo not given) | inconclusive: 112 µM [inhibitor, single point] |  |
| O=C(/C=C/c1cccc([N+](=O)[O-])c1)NCCSCc1ccccc1Cl |  | inactive: -27.5% |
| O=C(c1cccc(S(=O)(=O)N2CCCCCC2)c1)N1CCN(Cc2ccccc2)CC1 | inconclusive: 39.8 µM [inhibitor, partial curve, poor fit] |  |
| O=S(=O)(Nc1nc2ccccc2s1)c1cc(F)ccc1F | inconclusive: 35.5 µM [inhibitor, partial curve, poor fit] |  |
| O=C(CNC(=S)NC(=O)c1ccccc1Br)c1ccccc1 |  | inactive: 7.21% |
| COCOCCn1cc(CN2CCS(=O)(=O)N(Cc3ccc(-c4ccc(OC)nc4)cc3)C(C(C)C)C2=O)nn1 (stereo not given) | inconclusive: 100 µM [inhibitor, single point] |  |
| COc1ccc(CCNS(=O)(=O)c2cccs2)cc1 | inconclusive: 31.6 µM [inhibitor, single point] |  |
| CC(C)(C)S(=O)(=O)N1C[C@@H]2CC(=O)C=C2[C@H]1CCO |  | inactive: 5.31% |
| CC(=O)c1ccc2c(c1)C1C=CCC1C(c1ccncc1)N2 (stereo not given) | inconclusive: 39.8 µM [inhibitor, partial curve, poor fit] |  |
| O=C(COc1cc2oc(=O)cc(-c3ccccc3)c2cc1Cl)NC(Cc1c[nH]c2ccc(O)cc12)C(=O)O (stereo not given) | inconclusive: 50.1 µM [inhibitor, partial curve, poor fit] |  |
| O=C(CCC[C@@H]1[C@H]2CCCN3CCC[C@@H](CN1C(=O)c1cccnc1)[C@@H]23)NC1CCCCC1 |  | inactive: 50.8% |
| O=C(NCc1ccc(C(F)(F)F)cc1)C1CC(c2ccc(C(F)(F)F)cc2)=NO1 (stereo not given) | inconclusive: 22.4 µM [inhibitor, partial curve, poor fit] |  |
| CCn1c(COc2ccccc2)nnc1SCC(=O)C(C)(C)C | inconclusive: 112 µM [inhibitor, partial curve, poor fit] |  |
| COc1ccc(CNC(=O)CCN2C(=O)c3ccccc3C2=O)cc1OC | inconclusive: 100 µM [inhibitor, partial curve, poor fit] |  |
| CN(C)c1ccc(N/C(=N\S(=O)(=O)c2cccs2)c2ccccc2)cc1 | inconclusive: 44.7 µM [inhibitor, partial curve, poor fit] |  |
| CCN(CC)c1ccc(/C=N/NC(=O)c2c(-c3ccccc3)noc2C)cc1 |  | inactive: -7.13% |
| O=C(c1ccc(Br)o1)N1CCC(c2n[nH]c(=O)n2Cc2ccc(F)cc2)CC1 | inconclusive: 70.8 µM [inhibitor, single point] |  |
| COCCCN(CCC(=O)NCCC(C)C)C(=O)c1cc(C)oc1C | inconclusive: 22.4 µM [inhibitor, full curve] |  |
| O=C(CSc1nnc(Nc2ccccc2)s1)NCc1ccco1 |  | inactive: 12.3% |
| CCc1noc(-c2nc(-c3ccc(F)c(F)c3)no2)n1 |  | inactive: -7.06% |
| O=C(Nc1ccc2oc(-c3ccc(Br)cc3)nc2c1)c1ccc2c(c1)OCO2 |  | inactive: -27.8% |
